{"source": "paper PMC3124506", "molecular_target": "MinE^1-31 (E. coli) (UniProt P0A734)", "assay": "co-sedimentation; sedimentation assay of MinE^32-88 mixed with MinE^1-31 in the presence of liposomes (PE:PG:CL = 36:14:50 mol%); supernatant and pellet fractions analysed; both purified", "note": "These are yes or no findings as the source states them, for the method shown.", "data": [{"substance": "MinE^32-88 (from UniProt P0A734 32-88) (domain or fragment)", "values": [{"measurement": "binding", "result": "no binding"}]}]}
